Data as given in article PMC3948889, “The Effects of LPM570065, a Novel Triple Reuptake Inhibitor, on Extracellular Serotonin, Dopamine and Norepinephrine Levels in Rats” (PLoS ONE, 2014).

Experiments:
[1] = system: extracellular 5-HT levels in the rat striatum; assay: microdialysis: extracellular 5-HT levels in the rat striatum; settings: baseline dialysate
[2] = system: extracellular DA levels in the rat striatum; assay: microdialysis: extracellular DA levels in the rat striatum; settings: baseline dialysate
[3] = acute group, intravenous solution (0.04 mmol·kg^−1 i.v.)
[4] = acute group, oral suspension (0.06 mmol·kg^−1 p.o.)
[5] = chronic, oral suspension (0.06 mmol·kg^−1·day^−1 p.o.), 14th day

CN(C)CC(c1ccc(O)cc1)C1(O)CCCCC1 (centres unmarked) [desvenlafaxine]
Basal monoamine levels (mean±SD) 5-HT [1, 3]: 4.4 ± 1.9 nM | Basal monoamine levels (mean±SD) 5-HT ([1]; acute group, oral solution (0.06 mmol·kg^−1 p.o.), not corrected for probe recovery): 4.1 ± 1.6 nM | Basal monoamine levels (mean±SD) 5-HT [1, 4]: 4.3 ± 1.4 nM | Basal monoamine levels (mean±SD) 5-HT [1, 5]: 4.1 ± 1.9 nM | Basal monoamine levels (mean±SD) DA [2, 3]: 7.6 ± 1.4 nM | Basal monoamine levels (mean±SD) DA ([2]; acute group, oral solution (0.06 mmol·kg^−1 p.o.)): 6.6 ± 1.5 nM | Basal monoamine levels (mean±SD) DA [2, 4]: 7.2 ± 1.5 nM | Basal monoamine levels (mean±SD) DA [2, 5]: 6.7 ± 1.4 nM
